Laboratory results taken from the supplement of paper PMC10849652.
The other results are listed elsewhere or left out.

By UniProt entry, the sequences of proteins in these tests, tags left out. Where a name states a change or a piece, a line headed by the entry shows the natural chain unless it says otherwise.
UniProt Q9GZT4: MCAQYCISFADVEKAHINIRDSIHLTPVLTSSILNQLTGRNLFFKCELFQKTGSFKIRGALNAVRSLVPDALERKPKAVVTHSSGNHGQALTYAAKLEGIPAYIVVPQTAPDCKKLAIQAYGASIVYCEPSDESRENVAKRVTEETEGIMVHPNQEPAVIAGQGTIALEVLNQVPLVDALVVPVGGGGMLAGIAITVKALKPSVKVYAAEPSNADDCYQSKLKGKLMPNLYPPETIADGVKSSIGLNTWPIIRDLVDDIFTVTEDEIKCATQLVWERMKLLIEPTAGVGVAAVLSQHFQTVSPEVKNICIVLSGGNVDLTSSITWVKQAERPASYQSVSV
UniProt Q5M775: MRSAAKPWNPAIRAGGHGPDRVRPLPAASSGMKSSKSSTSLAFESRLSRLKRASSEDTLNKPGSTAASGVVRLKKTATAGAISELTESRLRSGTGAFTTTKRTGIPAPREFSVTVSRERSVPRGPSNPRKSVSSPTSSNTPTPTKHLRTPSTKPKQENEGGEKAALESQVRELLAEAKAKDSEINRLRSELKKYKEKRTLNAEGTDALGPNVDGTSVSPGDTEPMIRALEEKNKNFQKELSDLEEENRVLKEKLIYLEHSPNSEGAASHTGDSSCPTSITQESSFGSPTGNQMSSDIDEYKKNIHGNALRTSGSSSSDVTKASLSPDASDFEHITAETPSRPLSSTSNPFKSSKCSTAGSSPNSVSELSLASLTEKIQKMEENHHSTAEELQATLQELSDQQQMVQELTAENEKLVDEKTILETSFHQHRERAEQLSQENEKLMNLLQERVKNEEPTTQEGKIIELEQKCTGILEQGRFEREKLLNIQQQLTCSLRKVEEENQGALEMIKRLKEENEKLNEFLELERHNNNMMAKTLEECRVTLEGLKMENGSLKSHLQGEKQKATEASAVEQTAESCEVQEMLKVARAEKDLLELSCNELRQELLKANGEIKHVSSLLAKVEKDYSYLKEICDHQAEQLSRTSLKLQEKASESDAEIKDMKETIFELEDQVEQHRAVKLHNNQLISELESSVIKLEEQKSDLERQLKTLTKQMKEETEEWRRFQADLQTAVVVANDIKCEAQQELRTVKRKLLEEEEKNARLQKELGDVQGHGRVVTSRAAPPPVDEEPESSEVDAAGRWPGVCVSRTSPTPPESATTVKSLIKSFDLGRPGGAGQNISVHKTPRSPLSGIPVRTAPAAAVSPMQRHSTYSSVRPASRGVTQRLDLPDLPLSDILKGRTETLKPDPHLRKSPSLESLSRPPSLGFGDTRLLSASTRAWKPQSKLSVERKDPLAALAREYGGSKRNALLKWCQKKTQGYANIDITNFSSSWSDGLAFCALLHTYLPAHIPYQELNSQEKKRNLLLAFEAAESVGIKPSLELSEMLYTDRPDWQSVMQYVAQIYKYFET
UniProt Q8N3U4: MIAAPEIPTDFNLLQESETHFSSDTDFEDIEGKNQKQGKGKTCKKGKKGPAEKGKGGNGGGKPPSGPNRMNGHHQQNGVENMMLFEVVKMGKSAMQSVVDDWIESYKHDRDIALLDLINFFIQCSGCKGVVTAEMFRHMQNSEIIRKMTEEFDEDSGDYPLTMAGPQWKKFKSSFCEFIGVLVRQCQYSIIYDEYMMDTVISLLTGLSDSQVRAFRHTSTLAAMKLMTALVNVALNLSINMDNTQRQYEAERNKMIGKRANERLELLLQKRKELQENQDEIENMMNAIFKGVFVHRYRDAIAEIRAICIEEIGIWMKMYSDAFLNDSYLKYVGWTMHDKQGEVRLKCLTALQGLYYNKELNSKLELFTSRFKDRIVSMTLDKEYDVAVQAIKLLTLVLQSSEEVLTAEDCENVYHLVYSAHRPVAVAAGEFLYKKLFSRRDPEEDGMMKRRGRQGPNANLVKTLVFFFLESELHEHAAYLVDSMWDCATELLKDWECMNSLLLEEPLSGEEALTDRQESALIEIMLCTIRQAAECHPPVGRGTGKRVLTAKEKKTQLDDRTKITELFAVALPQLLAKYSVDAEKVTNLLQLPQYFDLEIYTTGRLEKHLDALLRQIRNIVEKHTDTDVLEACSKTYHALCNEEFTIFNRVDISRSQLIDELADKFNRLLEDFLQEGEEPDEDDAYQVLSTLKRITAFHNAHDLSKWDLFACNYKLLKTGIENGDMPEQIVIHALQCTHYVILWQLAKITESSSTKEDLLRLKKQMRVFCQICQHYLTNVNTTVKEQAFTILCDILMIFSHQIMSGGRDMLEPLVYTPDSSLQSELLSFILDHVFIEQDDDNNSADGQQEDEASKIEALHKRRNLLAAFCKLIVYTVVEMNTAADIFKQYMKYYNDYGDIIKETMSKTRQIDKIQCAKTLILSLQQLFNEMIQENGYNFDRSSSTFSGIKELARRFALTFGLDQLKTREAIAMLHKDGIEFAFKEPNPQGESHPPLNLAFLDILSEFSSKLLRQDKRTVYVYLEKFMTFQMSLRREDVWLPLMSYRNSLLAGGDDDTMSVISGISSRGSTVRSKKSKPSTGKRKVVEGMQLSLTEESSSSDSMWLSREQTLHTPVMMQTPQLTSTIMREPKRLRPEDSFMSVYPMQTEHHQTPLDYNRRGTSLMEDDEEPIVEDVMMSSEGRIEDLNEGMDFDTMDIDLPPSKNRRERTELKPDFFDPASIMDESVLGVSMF
UniProt P09132: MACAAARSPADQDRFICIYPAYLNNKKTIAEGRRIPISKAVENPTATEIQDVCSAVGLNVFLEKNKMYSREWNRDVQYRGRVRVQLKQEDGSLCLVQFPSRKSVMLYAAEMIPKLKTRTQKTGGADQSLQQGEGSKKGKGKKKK
UniProt O15270: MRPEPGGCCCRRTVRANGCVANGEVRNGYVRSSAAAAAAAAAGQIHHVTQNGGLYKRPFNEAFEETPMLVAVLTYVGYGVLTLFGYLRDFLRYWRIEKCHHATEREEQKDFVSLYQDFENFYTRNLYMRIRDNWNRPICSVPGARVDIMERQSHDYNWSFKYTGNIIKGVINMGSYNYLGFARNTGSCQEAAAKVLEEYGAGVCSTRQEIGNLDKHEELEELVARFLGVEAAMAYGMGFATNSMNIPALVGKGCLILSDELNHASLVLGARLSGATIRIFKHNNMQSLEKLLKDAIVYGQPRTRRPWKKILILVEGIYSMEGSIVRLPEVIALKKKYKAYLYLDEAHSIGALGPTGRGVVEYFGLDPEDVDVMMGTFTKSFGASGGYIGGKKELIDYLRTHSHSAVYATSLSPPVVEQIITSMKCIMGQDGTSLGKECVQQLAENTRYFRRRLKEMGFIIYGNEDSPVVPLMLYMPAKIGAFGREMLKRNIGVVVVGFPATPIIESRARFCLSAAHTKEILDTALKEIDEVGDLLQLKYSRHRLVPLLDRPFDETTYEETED
UniProt Q9BUA3: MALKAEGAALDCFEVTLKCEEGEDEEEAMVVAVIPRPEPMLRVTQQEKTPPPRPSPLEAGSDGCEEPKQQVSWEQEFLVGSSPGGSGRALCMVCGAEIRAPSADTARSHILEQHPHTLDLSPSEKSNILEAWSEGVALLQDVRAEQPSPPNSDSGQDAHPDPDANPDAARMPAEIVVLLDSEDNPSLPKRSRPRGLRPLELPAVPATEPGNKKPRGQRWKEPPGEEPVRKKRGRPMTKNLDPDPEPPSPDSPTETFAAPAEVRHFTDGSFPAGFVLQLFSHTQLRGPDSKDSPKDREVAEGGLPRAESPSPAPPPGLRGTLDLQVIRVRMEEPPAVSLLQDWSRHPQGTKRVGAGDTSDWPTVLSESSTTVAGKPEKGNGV
UniProt Q08170: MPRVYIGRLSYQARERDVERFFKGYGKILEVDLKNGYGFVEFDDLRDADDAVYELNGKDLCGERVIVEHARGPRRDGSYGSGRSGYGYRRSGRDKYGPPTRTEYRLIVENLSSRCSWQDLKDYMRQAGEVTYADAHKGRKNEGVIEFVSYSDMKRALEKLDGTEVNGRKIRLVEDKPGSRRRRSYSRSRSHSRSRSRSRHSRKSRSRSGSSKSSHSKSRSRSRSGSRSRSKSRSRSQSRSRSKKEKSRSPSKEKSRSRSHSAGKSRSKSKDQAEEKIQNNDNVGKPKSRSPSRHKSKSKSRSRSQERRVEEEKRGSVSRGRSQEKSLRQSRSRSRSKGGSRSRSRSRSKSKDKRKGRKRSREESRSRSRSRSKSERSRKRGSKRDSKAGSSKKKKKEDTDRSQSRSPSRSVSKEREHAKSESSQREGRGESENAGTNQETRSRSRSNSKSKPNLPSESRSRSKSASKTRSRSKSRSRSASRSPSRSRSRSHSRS
UniProt P30626: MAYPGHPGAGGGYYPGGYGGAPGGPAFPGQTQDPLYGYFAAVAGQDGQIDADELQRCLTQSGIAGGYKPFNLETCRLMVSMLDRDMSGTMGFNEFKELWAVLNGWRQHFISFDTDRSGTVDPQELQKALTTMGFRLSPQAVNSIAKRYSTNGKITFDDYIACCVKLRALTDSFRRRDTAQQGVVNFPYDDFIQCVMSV
UniProt Q8WW59: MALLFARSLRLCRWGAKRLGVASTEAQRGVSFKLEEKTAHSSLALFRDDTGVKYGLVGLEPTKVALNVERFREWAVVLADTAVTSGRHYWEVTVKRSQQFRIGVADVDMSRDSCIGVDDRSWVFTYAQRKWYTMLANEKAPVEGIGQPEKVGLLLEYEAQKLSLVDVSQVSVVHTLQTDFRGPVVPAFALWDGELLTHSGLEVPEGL
UniProt P40763, whole entry, looked up: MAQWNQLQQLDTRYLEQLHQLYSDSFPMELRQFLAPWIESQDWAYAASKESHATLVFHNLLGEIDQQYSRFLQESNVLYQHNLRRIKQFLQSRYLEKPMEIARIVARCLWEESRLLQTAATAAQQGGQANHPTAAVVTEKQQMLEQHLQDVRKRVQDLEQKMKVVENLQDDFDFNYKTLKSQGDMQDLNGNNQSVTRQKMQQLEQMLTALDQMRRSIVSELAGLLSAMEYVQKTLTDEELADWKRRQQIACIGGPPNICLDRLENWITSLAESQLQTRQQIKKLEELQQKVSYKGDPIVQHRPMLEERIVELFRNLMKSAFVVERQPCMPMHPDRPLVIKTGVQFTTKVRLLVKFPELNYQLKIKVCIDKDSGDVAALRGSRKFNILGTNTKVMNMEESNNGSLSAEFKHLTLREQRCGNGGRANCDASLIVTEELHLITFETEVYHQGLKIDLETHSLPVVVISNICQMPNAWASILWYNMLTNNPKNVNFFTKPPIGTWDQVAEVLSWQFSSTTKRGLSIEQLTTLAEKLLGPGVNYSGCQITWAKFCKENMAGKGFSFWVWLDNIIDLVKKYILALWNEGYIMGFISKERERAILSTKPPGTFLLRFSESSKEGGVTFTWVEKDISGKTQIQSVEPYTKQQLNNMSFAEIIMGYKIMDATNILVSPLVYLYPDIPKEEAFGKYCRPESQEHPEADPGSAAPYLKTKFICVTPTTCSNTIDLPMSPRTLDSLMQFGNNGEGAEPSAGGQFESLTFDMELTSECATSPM
UniProt Q13586, whole entry, looked up: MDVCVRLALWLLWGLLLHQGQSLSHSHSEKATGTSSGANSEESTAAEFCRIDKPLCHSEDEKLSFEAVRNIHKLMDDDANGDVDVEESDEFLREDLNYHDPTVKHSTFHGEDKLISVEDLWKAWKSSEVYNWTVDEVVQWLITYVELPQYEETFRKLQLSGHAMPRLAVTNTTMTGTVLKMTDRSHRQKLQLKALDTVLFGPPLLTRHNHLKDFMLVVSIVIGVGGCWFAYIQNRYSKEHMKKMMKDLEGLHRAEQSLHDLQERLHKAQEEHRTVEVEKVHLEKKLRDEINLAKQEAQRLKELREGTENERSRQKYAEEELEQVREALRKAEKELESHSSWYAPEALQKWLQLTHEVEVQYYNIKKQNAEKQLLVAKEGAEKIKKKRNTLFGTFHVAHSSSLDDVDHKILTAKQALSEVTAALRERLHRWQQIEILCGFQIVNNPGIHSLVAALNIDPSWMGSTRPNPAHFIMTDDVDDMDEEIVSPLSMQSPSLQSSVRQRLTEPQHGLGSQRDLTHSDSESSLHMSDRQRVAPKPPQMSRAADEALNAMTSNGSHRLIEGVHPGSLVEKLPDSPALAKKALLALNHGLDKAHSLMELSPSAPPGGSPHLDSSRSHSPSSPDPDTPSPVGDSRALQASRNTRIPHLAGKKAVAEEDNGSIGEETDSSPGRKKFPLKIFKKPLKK

Columns and labels:
Assay in all cases: log2 fold change, soluble protein after heating vs DMSO (PISA); higher = thermal stabilisation; K562 lysate, 10 uM; active = over 0.2 and 3.5 SD of the protein, either way, in both replicates (recomputed)
[1] = compound: C=CC(=O)N1CCC[C@@H](n2nc(-c3ccc(Oc4ccccc4)cc3)c3c(N)ncnc32)C1 [ibrutinib]
Outline: (§1)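 Dounce homogenisation of K562 pellets in PBS pH 7.4 with 1 mM MgCl2 produced a crude extract, used at 1 mg/mL protein. Exposure to 10 μM compound lasted 30 min, and aliquots were then heated for 3 min across 48°C-58°C, pooled and brought to 0.5% NP-40 at 4°C. The supernatant after 21,000xg for 90 min was quantified by TMTpro 16plex LC-MS/MS with channel sums equalised. Duplicate values are given as log-two fold change in thermal stability relative to solvent controls.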

[2] = compound: CC(=O)c1cnc2ccc(-c3cc(Cl)c(O)c(Cl)c3)nc2c1N[C@H]1CC[C@H](CN(C)C)CC1
Outline: as §1

[3] = compound: CC(C)(C)Cn1c(N)nc2ccc(-c3[nH]c(C(C)(C)C)nc3-c3ccc(F)cc3)nc21 [ralimetinib]
Outline: as §1

[4] = compound: CC(C)(O)CC(=O)NCCn1ccc2ncnc(Nc3ccc(Oc4cccc(C(F)(F)F)c4)c(Cl)c3)c21
Outline: as §1

[5] = compound: CC(C)C1=C2N=C(C=C(N2N=C1)NCC3=CC=CC=C3)NCCCCCCN
Outline: as §1

[6] = compound: CC1=C(C(CC(=O)N1)C2=CC=C(C=C2)C(F)(F)F)C(=O)NC3=C(C=C4C(=C3)C=NN4)F
Outline: as §1

[7] = compound: CC1=C(C2=C(C=C1)C(=O)C3=CC=CC=C3N2CCCN)C
Outline: as §1

[8] = compound: CC1=C(C=C(C=C1)NC(=O)C2=CC(=CC=C2)C(C)(C)C#N)NC3=CC4=C(C=C3)N=CN(C4=O)C
Outline: as §1

[9] = compound: CC1=C(C=C(C=C1)NC(=O)C2=CC(=CC=C2)N(C)C)NC(=O)C3=CC=C(C=C3)O
Outline: as §1

[10] = compound: CC1=CC=C(C=C1)SC2=C3C=C(SC3=CN=C2)C(=O)N
Outline: as §1

[11] = compound: CCCS(=O)(=O)Nc1ccc(F)c(C(=O)c2c[nH]c3ncc(-c4ccc(Cl)cc4)cc23)c1F [vemurafenib]
Outline: as §1

[12] = compound: CCCS(=O)(=O)Nc1ccc(F)c(C(=O)c2c[nH]c3ncc(Cl)cc23)c1F
Outline: as §1

[13] = compound: CCN(CCCOc1ccc2c(Nc3cc(CC(=O)Nc4cccc(F)c4)[nH]n3)ncnc2c1)CCOP(=O)(O)O [barasertib]
Outline: as §1

[14] = compound: CC[C@@H]1C(=O)N(C)c2cnc(Nc3ccc(C(=O)NC4CCN(C)CC4)cc3OC)nc2N1C1CCCC1
Outline: as §1

[15] = compound: CC[C@@H]1C(=O)N(C)c2cnc(Nc3ccc(C(=O)N[C@H]4CC[C@H](N5CCN(CC6CC6)CC5)CC4)cc3OC)nc2N1C(C)C [volasertib]
Outline: as §1

[16] = compound: CCn1c(C(=O)N(C2CC2)C2CC2)cc2c3c(ncn3C)c(Nc3cc(C)n(C)n3)nc21
Outline: as §1

[17] = compound: CCn1cc(-c2ccnc3[nH]c(-c4cccc(CN(C)C)c4)cc23)c(-c2ccc(NC(=O)N(C)C)cc2)n1
Outline: as §1

[18] = compound: CN1CCC(CNc2ccc3ncc(-c4cccc(OC(F)(F)F)c4)n3n2)CC1
Outline: as §1

[19] = compound: CN1CCN(CCOc2cc(OC3CCOCC3)c3c(Nc4c(Cl)ccc5c4OCO5)ncnc3c2)CC1 [saracatinib]
Outline: as §1

[20] = compound: CN1CCN(c2nc(C3=C(c4c[nH]c5ccccc45)C(=O)NC3=O)c3ccccc3n2)CC1 [sotrastaurin]
Outline: as §1

| Target | log2 fold change [1] | log2 fold change [2] | log2 fold change [3] | log2 fold change [4] | log2 fold change [5] | log2 fold change [6] | log2 fold change [7] | log2 fold change [8] | log2 fold change [9] | log2 fold change [10] | log2 fold change [11] | log2 fold change [12] | log2 fold change [13] | log2 fold change [14] | log2 fold change [15] | log2 fold change [16] | log2 fold change [17] | log2 fold change [18] | log2 fold change [19] | log2 fold change [20] |
| --- | --- | --- | --- | --- | --- | --- | --- | --- | --- | --- | --- | --- | --- | --- | --- | --- | --- | --- | --- | --- |
| STAM2 (UniProt O75886) | inactive: -0.007 | inactive: -0.007 | inactive: -0.064 | inactive: -0.008 | inactive: -0.006 | inactive: 0.027 | inactive: -0.004 | inactive: -0.012 | inactive: 0.016 | inactive: -0.029 | inactive: 0 | inactive: 0.017 | inactive: -0.033 | inactive: 0.06 | inactive: -0.006 | inactive: 0.017 | inactive: -0.012 | inactive: 0.01 | inactive: 0.031 | inactive: -0.032 |
| SRR (UniProt Q9GZT4) | inactive: -0.048 | inactive: 0.097 | inactive: -0.047 | inactive: -0.141 | inactive: 0.037 | inactive: 0.01 | inactive: 0.102 | inactive: 0.011 | inactive: 0.163 | inactive: -0.044 | inactive: 0.04 | inactive: -0.106 | inactive: 0.011 | inactive: 0.108 | inactive: 0.011 | inactive: -0.053 | inactive: -0.026 | inactive: 0.075 | inactive: -0.11 | inactive: 0.139 |
| SQSTM1 (UniProt Q13501) | inactive: -0.022 | inactive: 0.009 | inactive: -0.014 | inactive: -0.041 | inactive: 0.015 | inactive: -0.084 | inactive: -0.054 | inactive: 0.032 | inactive: 0.027 | inactive: 0.017 | inactive: 0.037 | inactive: 0.04 | inactive: -0.004 | inactive: 0.05 | inactive: -0.023 | inactive: -0.025 | inactive: 0.039 | inactive: -0.026 | inactive: 0.042 | inactive: 0.025 |
| SPECC1 (UniProt Q5M775) | inactive: -0.051 | inactive: -0.024 | inactive: 0.051 | inactive: -0.018 | inactive: 0.042 | inactive: 0.036 | inactive: 0.02 | inactive: 0.001 | inactive: -0.013 | inactive: -0.008 | inactive: -0.068 | inactive: 0.016 | inactive: 0.147 | inactive: 0.122 | inactive: -0.031 | inactive: -0.021 | inactive: -0.017 | inactive: 0.009 | inactive: 0.106 | inactive: 0.049 |
| STAG2 isoform 2 (UniProt Q8N3U4) | inactive: -0.015 | inactive: -0.011 | inactive: -0.003 | inactive: -0.023 | inactive: -0.025 | inactive: -0.009 | inactive: -0.002 | inactive: -0.01 | inactive: 0.01 | inactive: 0 | inactive: -0.001 | inactive: 0.001 | inactive: -0.019 | inactive: 0.007 | inactive: -0.016 | inactive: -0.001 | inactive: 0.016 | inactive: -0.026 | inactive: -0.021 | inactive: 0.022 |
| SRP19 (UniProt P09132) | inactive: 0.014 | inactive: 0.001 | inactive: -0.033 | inactive: 0.02 | inactive: -0.063 | inactive: 0.02 | inactive: 0.029 | inactive: 0.009 | inactive: -0.039 | inactive: 0.031 | inactive: 0 | inactive: -0.002 | inactive: 0.131 | inactive: -0.013 | inactive: -0.058 | inactive: 0.01 | inactive: -0.127 | inactive: 0.006 | inactive: -0.04 | inactive: -0.001 |
| SPTLC2 (UniProt O15270) | inactive: -0.074 | inactive: -0.013 | inactive: 0.012 | inactive: -0.043 | inactive: -0.003 | inactive: -0.019 | inactive: 0.014 | inactive: 0.087 | inactive: -0.01 | inactive: 0.012 | inactive: 0.013 | inactive: -0.008 | inactive: 0.017 | inactive: 0.055 | inactive: 0 | inactive: 0.004 | inactive: 0 | inactive: 0.011 | inactive: 0.026 | inactive: 0.02 |
| SPINDOC (UniProt Q9BUA3) | inactive: 0.033 | inactive: 0.066 | inactive: 0.003 | inactive: -0.021 | inactive: 0.014 | inactive: -0.024 | inactive: -0.038 | inactive: -0.014 | inactive: 0.031 | inactive: -0.06 | inactive: 0.069 | inactive: 0.056 | inactive: -0.052 | inactive: 0.157 | inactive: -0.025 | inactive: -0.034 | inactive: -0.07 | inactive: 0.035 | inactive: 0.021 | inactive: 0.024 |
| SRSF4 (UniProt Q08170) | inactive: 0.018 | inactive: 0.005 | inactive: 0.02 | inactive: 0.01 | inactive: -0.011 | inactive: -0.023 | inactive: 0.015 | inactive: -0.039 | inactive: -0.001 | inactive: 0.007 | inactive: -0.048 | inactive: -0.035 | inactive: -0.048 | inactive: -0.192 | inactive: -0.014 | inactive: 0.036 | inactive: 0.085 | inactive: -0.061 | inactive: -0.018 | inactive: 0.011 |
| SPECC1L (UniProt Q69YQ0) | inactive: 0.033 | inactive: -0.017 | inactive: -0.025 | inactive: -0.023 | inactive: -0.023 | inactive: -0.019 | inactive: -0.009 | inactive: 0.007 | inactive: -0.001 | inactive: -0.027 | inactive: -0.017 | inactive: 0.019 | inactive: 0.004 | inactive: 0.078 | inactive: -0.003 | inactive: -0.019 | inactive: -0.062 | inactive: 0.072 | inactive: 0.012 | inactive: -0.005 |
| SRI (UniProt P30626) | inactive: -0.031 | inactive: -0.023 | inactive: 0.015 | inactive: -0.024 | inactive: -0.047 | inactive: -0.071 | inactive: 0 | inactive: 0.039 | inactive: -0.014 | inactive: 0.062 | inactive: -0.013 | inactive: -0.001 | inactive: 0.041 | inactive: -0.016 | inactive: 0.085 | inactive: -0.001 | inactive: 0.01 | inactive: -0.061 | inactive: 0.006 | inactive: -0.056 |
| SPRYD4 (UniProt Q8WW59) | inactive: 0.008 | inactive: -0.002 | inactive: -0.02 | inactive: -0.03 | inactive: -0.005 | inactive: -0.035 | inactive: -0.007 | inactive: 0.024 | inactive: 0.002 | inactive: 0.026 | inactive: -0.022 | inactive: 0 | inactive: 0.024 | inactive: -0.009 | inactive: -0.02 | inactive: -0.012 | inactive: -0.067 | inactive: 0.069 | inactive: -0.006 | inactive: -0.001 |
| STAT3 isoform 2 (UniProt P40763) | inactive: -0.005 | inactive: 0.006 | inactive: 0.007 | inactive: -0.016 | inactive: 0.007 | inactive: -0.01 | inactive: 0.022 | inactive: 0.016 | inactive: 0.015 | inactive: -0.011 | inactive: 0.033 | inactive: 0.021 | inactive: -0.003 | inactive: -0.03 | inactive: -0.044 | inactive: -0.008 | inactive: 0.049 | inactive: -0.055 | inactive: 0.003 | inactive: -0.011 |
| SPTBN2 (UniProt O15020) | inactive: 0.027 | inactive: -0.034 | inactive: -0.026 | inactive: 0.005 | inactive: 0.002 | inactive: -0.036 | inactive: 0.021 | inactive: -0.04 | inactive: 0.003 | inactive: 0.02 | inactive: 0.001 | inactive: -0.001 | inactive: 0.032 | inactive: -0.008 | inactive: -0.015 | inactive: 0.033 | inactive: -0.044 | inactive: 0.03 | inactive: 0.002 | inactive: -0.013 |
| SSB (UniProt E7ERC4) | inactive: 0.14 | inactive: -0.087 | inactive: -0.009 | inactive: -0.075 | inactive: -0.046 | inactive: 0.062 | inactive: 0.014 | inactive: 0.239 | inactive: 0.093 | inactive: -0.013 | inactive: 0.111 | inactive: 0 | inactive: -0.04 | inactive: -0.281 | inactive: 0.003 | inactive: -0.134 | active: 1.92 | inactive: -0.377 | inactive: 0.013 | inactive: -0.012 |
| STIM1 (UniProt Q13586) | inactive: 0.033 | inactive: 0.043 | inactive: 0.023 | inactive: -0.021 | inactive: 0.027 | inactive: 0.003 | inactive: 0.023 | inactive: 0.001 | inactive: 0.008 | inactive: 0.027 | inactive: 0.003 | inactive: 0.012 | inactive: 0.036 | inactive: -0.076 | inactive: 0.006 | inactive: 0.048 | inactive: 0.259 | inactive: -0.205 | inactive: 0.003 | inactive: -0.01 |

A stretch from further up, for reference:

| Target | log2 fold change [1] | log2 fold change [2] | log2 fold change [3] | log2 fold change [4] | log2 fold change [5] | log2 fold change [6] | log2 fold change [7] | log2 fold change [8] | log2 fold change [9] | log2 fold change [10] | log2 fold change [11] | log2 fold change [12] | log2 fold change [13] | log2 fold change [14] | log2 fold change [15] | log2 fold change [16] | log2 fold change [17] | log2 fold change [18] | log2 fold change [19] | log2 fold change [20] |
| --- | --- | --- | --- | --- | --- | --- | --- | --- | --- | --- | --- | --- | --- | --- | --- | --- | --- | --- | --- | --- |
| SPRYD4 (UniProt Q8WW59) | inactive: 0.008 | inactive: -0.002 | inactive: -0.02 | inactive: -0.03 | inactive: -0.005 | inactive: -0.035 | inactive: -0.007 | inactive: 0.024 | inactive: 0.002 | inactive: 0.026 | inactive: -0.022 | inactive: 0 | inactive: 0.024 | inactive: -0.009 | inactive: -0.02 | inactive: -0.012 | inactive: -0.067 | inactive: 0.069 | inactive: -0.006 | inactive: -0.001 |
| STAT3 isoform 2 (UniProt P40763) | inactive: -0.005 | inactive: 0.006 | inactive: 0.007 | inactive: -0.016 | inactive: 0.007 | inactive: -0.01 | inactive: 0.022 | inactive: 0.016 | inactive: 0.015 | inactive: -0.011 | inactive: 0.033 | inactive: 0.021 | inactive: -0.003 | inactive: -0.03 | inactive: -0.044 | inactive: -0.008 | inactive: 0.049 | inactive: -0.055 | inactive: 0.003 | inactive: -0.011 |
